# Hit rate of the full screen: of about 140,000 compounds, about 4,300 (3.1%) were called active. The shares of active, inactive and inconclusive entries below differ from those in the screen.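 Rule for the calls: active = readout at or below -70, meaning at least 70% loss of cells showing the perinucleolar compartment, a nuclear body marking cancer cells; inconclusive = readout between -30 and a set limit; inactive = the rest.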
# Assay: High Content Assay for Compounds that inhibit the Assembly of the Perinucleolar Compartment;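 note: plate controls were DMSO wells for no effect and camptothecin positive control wells for full effect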
# Settings: PC3M PTB-GFP, PNC prevalence imaging, 16 h; at 10 µM; stronger effect = lower value
# Procedure, shortened: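 PC3M cells stably expressing PTB-GFP, 750–1000 cells/well, treated 16 h at 37 °C with compound (23 nl of library stock), in duplicate. After paraformaldehyde fixation and Hoechst stain, imaged at 20x; PNC prevalence scored by image analysis.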
row,Compound,"activity change (PNC), negative = inhibition"
1,O=C(c1cc2ccccc2oc1=O)N(Cc1ccc2c(c1)OCO2)Cc1ccco1,inconclusive: -48.3%
2,Cc1n[nH]c(C)c1CCc1nc2c3ccccc3nc(SCC(N)=O)n2n1,inconclusive: -40.6%
3,CCCCN(C)Cc1c(C)[nH]c2ccc(C)cc2c1=O,inconclusive: -51.7%
4,O=C(NCCN1CCN(c2ccccc2F)CC1)C1c2ccccc2C(=O)N2CCc3ccccc3C12 (stereo not given),inconclusive: -55%
5,Clc1ccc(-c2nnc3sc(-c4ccccn4)nn23)cc1,inconclusive: -63.8%
6,Cc1nn(-c2nnc(C)c(=O)[nH]2)c(C)c1SCC(=O)Nc1ccc(C(C)C)cc1,inconclusive: -55%
7,CC(C(=O)N1CCOCC1)N1C(=O)C2C3CC(C(Br)C3Br)C2C1=O (stereo not given),inconclusive: -43.9%
8,CCOc1ccccc1-n1c(SCC(=O)NC)nnc1-c1ccco1,inconclusive: -58.4%
9,COCCNC(=O)c1ccc2c(c1)ncn2-c1ccc(F)c(F)c1,inactive: 68.6%
10,CCOc1ccc(C(=O)NC2CCN(S(C)(=O)=O)CC2)cc1,active: -86.9%
11,CCN1CCN(Cc2c(O)ccc3c2O/C(=C\C=C\c2ccccc2OC)C3=O)CC1,inconclusive: -35.2%
12,O=C(NCCc1ccccc1)c1nc2c(nnn2Cc2ccccc2Cl)c(=O)[nH]1,inactive: -25.3%
13,CCOc1ccc(CN2CCN(c3cc(C)nc4c5c(C)cc(C)nc5nn34)CC2)cc1,inconclusive: -43.8%
14,O=C(N1CCOCC1)N1CCN(C(=O)N(c2ccccc2)c2ccccc2)CC1,inactive: -26.1%
15,Cc1ccnc(NC(=O)COC(=O)C2COc3ccccc3O2)n1 (stereo not given),inconclusive: -59.8%
16,COC(=O)CSC1=C(C#N)C(c2cccc(OC)c2)CC(=O)N1 (stereo not given),inactive: 16.4%
17,COc1ccccc1C(=O)n1nc(-c2ccccc2)nc1N,inconclusive: -45.6%
18,COC(=O)c1nc2n(n1)C(c1ccccc1OC)C1=C(CCCC1=O)N2 (stereo not given),inconclusive: -35.9%
19,Cc1ccc2c(C)nc(SC(C(=O)c3ccccc3)c3ccccc3)nc2c1 (stereo not given),inconclusive: -50.2%
20,Cc1ccc(C(=O)NCCSc2ccc(Cl)cc2)cc1[N+](=O)[O-],inconclusive: -36.3%
21,Cc1nc2ncnn2c(N2CCN(C(=O)Cc3cccs3)CC2)c1C,inactive: -15.3%
22,Cc1nc([N+](=O)[O-])cn1-c1ccc(N)cc1,inconclusive: -42.1%
23,C=CCOc1c(Cl)cc(/C=N/O)cc1OC,inconclusive: -31.2%

# For reference, part of the list above:
row,Compound,"activity change (PNC), negative = inhibition"
3,CCCCN(C)Cc1c(C)[nH]c2ccc(C)cc2c1=O,inconclusive: -51.7%
4,O=C(NCCN1CCN(c2ccccc2F)CC1)C1c2ccccc2C(=O)N2CCc3ccccc3C12 (stereo not given),inconclusive: -55%
5,Clc1ccc(-c2nnc3sc(-c4ccccn4)nn23)cc1,inconclusive: -63.8%

# Remaining list, next part

row,Compound,"activity change (PNC), negative = inhibition"
1,c1cn(C23CC4CC(CC(C4)C2)C3)cn1,inconclusive: -62.8%
2,Cc1nn(CC(=O)NCCc2ccccc2)c(C)c1[N+](=O)[O-],inconclusive: -65.4%
3,C=CCNc1nc2c(c(=O)n(C)c(=O)n2C)n1CC,inconclusive: -70.1%
4,CCOc1cc(S(=O)(=O)N2CCCCC2)ccc1F,inconclusive: -45.4%
5,CCCCOc1ccc(C(=O)NCC(=O)OCC(=O)N2CCN(S(=O)(=O)c3ccc(C)cc3C)CC2)cc1,inactive: 24.8%
6,Cc1ccc(NS(=O)(=O)c2ccc(N/N=C/c3ccncc3)c([N+](=O)[O-])c2)c(C)c1,inconclusive: -47.4%
7,COc1ccc(S(=O)(=O)CCC(=O)N(C)c2ccc(OC)cc2OC)cc1,inconclusive: -47.6%
8,CCOC(=O)c1cccc(C(=O)Oc2ccccc2)n1,inconclusive: -36%
9,CCOc1ccc(C2=CS/C(=C(\C#N)c3nnc4n3CCCCC4)N2CC)cc1,inconclusive: -49.1%
10,Cc1ccnc(NC(=S)NC(=O)c2cncc(Br)c2)c1,active: -100%
11,CCCCOCCCNC(=O)c1ccc([N+](=O)[O-])c(C)c1,inconclusive: -53.4%
12,CCn1ccc(=N)cc1,inconclusive: -64.3%
13,c1ccc2c(c1)NC1(CCCCC1)n1c-2nc2ccccc21,inconclusive: -33.4%
14,O=C(CC1CCS(=O)(=O)C1)NC1CCCCC1 (stereo not given),inconclusive: -36.9%
15,CCSc1nnc(-c2ccc(Cl)cc2)c2ccccc12,inactive: -21.5%
16,CCOC(=O)C(CC)n1cnc2c(cnn2-c2ccc(Cl)cc2)c1=O (stereo not given),inconclusive: -32.3%
17,CC(C)(C)/C(Cn1cncn1)=N\OC(=O)Nc1ccc(Cl)cc1,inconclusive: -46.3%
18,COc1ccccc1Nc1nc(N)nc(CN2CCC(Cc3ccccc3)CC2)n1,inconclusive: -40.1%
19,COC(=O)C1=C(C)NC(C)=C(C(=O)OC)C1c1ccc(NC(C)=O)cc1,inconclusive: -56%
20,O=C(NC1CCCCC1)N1CCN(C2CCCCC2)CC1,inconclusive: -79.3%
21,Cc1cc(-c2nnc(SCC(=O)c3ccc(F)cc3)o2)no1,inconclusive: -42.6%
22,Cc1cc(N2CCCC2=O)cc(C)c1CN1C(=O)c2ccccc2C1=O,inactive: 27.7%

# — PubChem BioAssay AID2417 (National Center for Advancing Translational Sciences (NCATS), 2010)
